Source: PMC10448307
Results are given in words; binding and its absence hold for the method and conditions named. In cells and extracts the contact can be indirect. Some entries that bind do so weakly or less than the wild type.

By UniProt entry, the sequences of proteins in these tests, tags left out.
UniProt Q03347: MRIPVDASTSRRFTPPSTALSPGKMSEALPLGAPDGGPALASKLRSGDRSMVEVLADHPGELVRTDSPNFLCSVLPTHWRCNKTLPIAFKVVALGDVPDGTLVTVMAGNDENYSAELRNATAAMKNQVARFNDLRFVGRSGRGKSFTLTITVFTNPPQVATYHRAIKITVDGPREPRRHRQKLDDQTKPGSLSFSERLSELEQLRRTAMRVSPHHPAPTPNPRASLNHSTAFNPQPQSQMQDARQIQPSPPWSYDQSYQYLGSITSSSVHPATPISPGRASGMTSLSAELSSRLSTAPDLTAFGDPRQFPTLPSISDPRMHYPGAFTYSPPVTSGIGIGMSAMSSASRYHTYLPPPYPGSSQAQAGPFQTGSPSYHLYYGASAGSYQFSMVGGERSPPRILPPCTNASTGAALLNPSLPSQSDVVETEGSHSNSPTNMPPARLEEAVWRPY

Biological target: T1, Forkhead box protein P3 (FOXP3) (mouse (endogenous in primary mouse CD4+ T and CD19+ B lymphocytes)) (UniProt Q99JB6)
T1 sequence: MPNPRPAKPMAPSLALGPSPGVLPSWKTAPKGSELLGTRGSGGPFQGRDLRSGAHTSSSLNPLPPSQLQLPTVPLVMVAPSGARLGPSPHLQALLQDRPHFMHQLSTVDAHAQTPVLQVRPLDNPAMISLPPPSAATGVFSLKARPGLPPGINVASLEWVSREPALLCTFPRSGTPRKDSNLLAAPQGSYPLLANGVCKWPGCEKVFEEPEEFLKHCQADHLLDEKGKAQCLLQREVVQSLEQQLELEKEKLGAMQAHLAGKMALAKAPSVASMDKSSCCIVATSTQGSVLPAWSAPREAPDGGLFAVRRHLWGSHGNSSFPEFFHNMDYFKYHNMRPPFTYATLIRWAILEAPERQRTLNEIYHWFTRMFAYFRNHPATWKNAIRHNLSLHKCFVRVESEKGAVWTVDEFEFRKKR
Experiment: co-IP; lysates (IP buffer, sonicated) of mouse CD4+ T and CD19+ B cells; anti-FOXP3, anti-RUNX1 or IgG antibody with Protein A + G magnetic beads, 4 °C overnight; western blot

Substance: RUNX family transcription factor 1 (RUNX1) (from UniProt Q03347 1-451)
- binding: binds
